Source: PubChem BioAssay AID248 (DTP/NCI, 2004)
The list shows only some results of the screen, not a fair sample: it gathers tests that were run many times, whatever their T/C, doses with no T/C, and many T/C values between a quarter and a half above the control. Further doses and runs are listed elsewhere. T/C is the treated group as % of the vehicle group. Some entries give survivors of the animals treated and no T/C: the source files T/C as zero there, which appears to mark a toxic dose or a test without result, not a measured value. Some survivor counts are full or nearly so, which does not show that the dose was tolerated: survival well below the control is almost never listed, so the zero probably covers shortened survival too. Survivors were counted at the toxicity check, usually on the fifth day, unless a day is given; later deaths do not show. Schedule codes are those of the source, read here as Q, the interval in days (D) or hours (H), X, the number of doses. For survival time, the PubChem record calls one and a half times the control and up active, and a quarter to a half above the control has no call in these data; cut-offs in other NCI protocols can differ. Some schedules carry Z or #; the key to these is not given. Some T/C values are followed by the survivors on the day toxicity was checked, most often the fifth; without a count, all were alive then.

Test system: L1210 leukemia ip in BDF1 mice, survival T/C
Experiment: NCI In Vivo Anticancer Drug Screen. Data for tumor model L1210 Leukemia (intraperitoneal) in B6D2F1 (BDF1) mice
Settings: higher T/C = longer survival; for survivor count: dose: 200.0 mg/kg/injection

SMILES: CCCCCN(C)/N=N/c1nc[nH]c1C(N)=O
- T/C (T/C endpoint: mean survival time, dose: 25.0 mg/kg/injection, schedule: Q01DX009 (ip), vehicle: carboxymethylcellulose (CMC)): 130 % of control [5 of 6 alive]
- T/C (T/C endpoint: mean survival time, dose: 25.0 mg/kg/injection, schedule: Q01DX Z (ip), vehicle: carboxymethylcellulose (CMC)): 130 % of control
- T/C (T/C endpoint: mean survival time, dose: 42.0 mg/kg/injection, schedule: Q01DX015 (ip), vehicle: carboxymethylcellulose (CMC)): 128 % of control
- T/C (T/C endpoint: mean survival time, dose: 50.0 mg/kg/injection, schedule: Q01DX009 (ip), vehicle: carboxymethylcellulose (CMC)): 139 % of control
- T/C (T/C endpoint: mean survival time, dose: 50.0 mg/kg/injection, schedule: Q01DX Z (ip), vehicle: carboxymethylcellulose (CMC)): 127 % of control
- T/C (T/C endpoint: mean survival time, dose: 72.0 mg/kg/injection, schedule: Q01DX015 (ip), vehicle: carboxymethylcellulose (CMC)): 128 % of control
- survivor count (T/C endpoint: mean survival time, schedule: Q01DX009 (ip), vehicle: carboxymethylcellulose (CMC)): 6 of 6
- survivor count (T/C endpoint: mean survival time, schedule: Q01DX015 (ip), vehicle: carboxymethylcellulose (CMC)): 6 of 6
- T/C (T/C endpoint: median survival time, dose: 50.0 mg/kg/injection, schedule: Q01DX011 (ip), vehicle: steroid suspending solution): 137 % of control
